Laboratory results: PubChem BioAssay AID1159578 (Peter MacCallum Cancer Centre, 2015)

Purpose: 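Genome-wide hunt for genes controlling movement of lymphatic endothelial cells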 (primary screen)
Cells: human lymphatic endothelial cells
Reagents: siRNA pool against human genes, 40 nM
Timing: 48 h after transfection
Measured: 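Cells stained with dye and imaged after a scratch; covered wound area and nuclei counted, duplicates averaged, migration set against mock wells and turned into a robust z-score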
Direction: migration robust z-score: higher = faster migration into the scratch; migration relative to mock: higher = more scratch area covered than mock; nuclei per well: higher = more cells in the well
Rule for the call: 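Migration changed when robust z exceeds 2 or falls below -2 and mean nuclei number is at least 3300; otherwise not called changed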
Calls: active = migration changed; inactive = no migration change, or too few cells
The deposit covers about 18,000 reagents; shown is a random part of them. About 1,030 of them (5.7%) count as active. 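Inactive calls also include pools with fewer than 3300 nuclei, whose migration was not assessed.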 The raw values are shown without normalisation. Reagent sequences are not shown.

gene symbol | migration robust z-score | migration class with cell-count check | migration relative to mock | nuclei per well, duplicate mean | activity call
CARD8 (GeneID 22900) | -0.78 | migration z between -2 and 2; enough cells | 0.68 | 6174 | inactive
ELP5 (GeneID 23587) | 0.21 | migration z between -2 and 2; enough cells | 0.94 | 5244 | inactive
PRKAR2A (GeneID 5576) | -1.53 | migration z between -2 and 2; enough cells | 0.51 | 4140 | inactive
OR8H3 (GeneID 390152) | -0.58 | migration z between -2 and 2; enough cells | 0.74 | 8438 | inactive
AKAP11 (GeneID 11215) | -2.75 | migration z below -2; enough cells | 0.28 | 3608 | active
RPP21 (GeneID 79897) | 0.32 | migration z between -2 and 2; enough cells | 0.97 | 5920 | inactive
OR2L2 (GeneID 26246) | -0.1 | migration z between -2 and 2; enough cells | 0.86 | 3988 | inactive
POP1 (GeneID 10940) | 1.84 | migration z between -2 and 2; enough cells | 1.36 | 6293 | inactive
ATXN1 (GeneID 6310) | -2.31 | migration z below -2; enough cells | 0.29 | 4974 | active
MED17 (GeneID 9440) | -0.26 | migration z between -2 and 2; enough cells | 0.76 | 5807 | inactive
GPR55 (GeneID 9290) | 0.29 | migration z between -2 and 2; enough cells | 0.86 | 6272 | inactive
ZNF267 (GeneID 10308) | -0.42 | migration z between -2 and 2; enough cells | 0.77 | 4656 | inactive
PRPF38A (GeneID 84950) | 0.03 | migration z between -2 and 2; enough cells | 0.89 | 5745 | inactive
FHDC1 (GeneID 85462) | 1.4 | migration z between -2 and 2; enough cells | 1.25 | 6618 | inactive
FASTKD4 (GeneID 9238) | 1 | migration z between -2 and 2; enough cells | 1.14 | 6180 | inactive
SH2D2A (GeneID 9047) | -0.38 | migration z between -2 and 2; enough cells | 0.79 | 6359 | inactive
SPINK14 (GeneID 408187) | 0.16 | migration z between -2 and 2; enough cells | 0.92 | 6549 | inactive
TKTL1 (GeneID 8277) | 0.24 | migration z between -2 and 2; enough cells | 0.85 | 5128 | inactive
TMEM63B (GeneID 55362) | -1.89 | migration z between -2 and 2; enough cells | 0.4 | 4736 | inactive
GLYR1 (GeneID 84656) | -0.04 | migration z between -2 and 2; enough cells | 0.87 | 5843 | inactive
GNG11 (GeneID 2791) | 0.5 | migration z between -2 and 2; enough cells | 1.02 | 6358 | inactive
KCMF1 (GeneID 56888) | 0.9 | migration z between -2 and 2; enough cells | 1.12 | 6374 | inactive
SLCO5A1 (GeneID 81796) | -0.78 | migration z between -2 and 2; enough cells | 0.66 | 5264 | inactive
LPA (GeneID 4018) | -0.62 | migration z between -2 and 2; enough cells | 0.68 | 4645 | inactive
SUSD6 (GeneID 9766) | -1.28 | migration z between -2 and 2; enough cells | 0.55 | 5063 | inactive
DNA2 (GeneID 1763) | -1.14 | migration z between -2 and 2; enough cells | 0.59 | 5058 | inactive
TMEM135 (GeneID 65084) | -0.29 | migration z between -2 and 2; enough cells | 0.8 | 6869 | inactive
SLC6A20 (GeneID 54716) | -1.54 | migration z between -2 and 2; enough cells | 0.51 | 6252 | inactive
ALDH1L1 (GeneID 10840) | 1.33 | migration z between -2 and 2; enough cells | 1.06 | 5655 | inactive
PIGO (GeneID 84720) | -0.08 | migration z between -2 and 2; enough cells | 0.79 | 6166 | inactive
FNDC5 (GeneID 252995) | 0.16 | migration z between -2 and 2; enough cells | 0.93 | 4786 | inactive
ANKLE1 (GeneID 126549) | 2.27 | migration z above 2; enough cells | 1.47 | 6450 | active
HCN2 (GeneID 610) | -0.29 | migration z between -2 and 2; enough cells | 0.75 | 4823 | inactive
CERS6 (GeneID 253782) | -1.12 | migration z between -2 and 2; enough cells | 0.6 | 4889 | inactive
NBPF10 (GeneID 100132406) | -1.38 | migration z between -2 and 2; enough cells | 0.52 | 4880 | inactive
CRIP2 (GeneID 1397) | -0.23 | migration z between -2 and 2; enough cells | 0.82 | 5290 | inactive
ANGPTL2 (GeneID 23452) | 0.06 | migration z between -2 and 2; enough cells | 0.9 | 6382 | inactive
SUMO1 (GeneID 7341) | -0.83 | migration z between -2 and 2; enough cells | 0.64 | 6166 | inactive
HMGN3 (GeneID 9324) | 0.17 | migration z between -2 and 2; enough cells | 0.93 | 5929 | inactive
KDM5C (GeneID 8242) | 0.62 | migration z between -2 and 2; enough cells | 0.92 | 6584 | inactive
TFB2M (GeneID 64216) | 1.25 | migration z between -2 and 2; enough cells | 1.04 | 6031 | inactive
F8A2 (GeneID 474383) | -0.3 | migration z between -2 and 2; enough cells | 0.8 | 5346 | inactive
KIRREL1 (GeneID 55243) | -0.05 | migration z between -2 and 2; enough cells | 0.87 | 6732 | inactive
SHB (GeneID 6461) | 2.08 | migration z above 2; enough cells | 1.21 | 4078 | active
PCID2 (GeneID 55795) | -0.02 | migration z between -2 and 2; enough cells | 0.88 | 6632 | inactive
NDRG3 (GeneID 57446) | -0.16 | migration z between -2 and 2; enough cells | 0.84 | 5754 | inactive
TRPS1 (GeneID 7227) | -0.96 | migration z between -2 and 2; enough cells | 0.62 | 5751 | inactive
ALMS1 (GeneID 7840) | -0.74 | migration z between -2 and 2; enough cells | 0.69 | 4933 | inactive
SPACA7 (GeneID 122258) | 1.5 | migration z between -2 and 2; enough cells | 1.27 | 5959 | inactive
MRPL58 (GeneID 3396) | -0.88 | migration z between -2 and 2; enough cells | 0.64 | 5404 | inactive
SNX12 (GeneID 29934) | -0.52 | migration z between -2 and 2; enough cells | 0.75 | 5192 | inactive
NCOA5 (GeneID 57727) | -0.64 | migration z between -2 and 2; enough cells | 0.72 | 3670 | inactive
SHQ1 (GeneID 55164) | 0.76 | migration z between -2 and 2; enough cells | 1.08 | 5880 | inactive
TSPAN1 (GeneID 10103) | 1.68 | migration z between -2 and 2; enough cells | 1.32 | 5284 | inactive
OR51A7 (GeneID 119687) | 0.12 | migration z between -2 and 2; enough cells | 0.92 | 4812 | inactive
MVD (GeneID 4597) | -0.28 | migration z between -2 and 2; enough cells | 0.82 | 4952 | inactive
NOL6 (GeneID 65083) | 0.08 | migration z between -2 and 2; enough cells | 0.91 | 4892 | inactive
